Results are given in words; binding and its absence hold for the method and conditions named. In cells and extracts the contact can be indirect. Some results given as binding are weak or reduced against the parent protein; the word gives no strength. Where a sequence is shown, tags or fusion partners need not be part of it.
Target: T1, HT1 fused to cLUC (Arabidopsis thaliana) (UniProt Q2MHE4)
T1 sequence: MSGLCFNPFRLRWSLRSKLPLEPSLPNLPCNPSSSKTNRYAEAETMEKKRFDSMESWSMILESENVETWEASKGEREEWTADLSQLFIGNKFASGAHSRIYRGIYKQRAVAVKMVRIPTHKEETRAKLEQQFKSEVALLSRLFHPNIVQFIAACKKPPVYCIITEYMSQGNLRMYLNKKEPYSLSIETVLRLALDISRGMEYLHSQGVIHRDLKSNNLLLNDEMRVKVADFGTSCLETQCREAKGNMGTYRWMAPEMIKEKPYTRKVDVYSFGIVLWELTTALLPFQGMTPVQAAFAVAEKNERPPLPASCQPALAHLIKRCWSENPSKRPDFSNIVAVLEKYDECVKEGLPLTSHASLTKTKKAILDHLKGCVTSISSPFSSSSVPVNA
Assay: split reporter

B1: MPK12 fused to the N-terminal half of luciferase (nLUC) (enzyme, UniProt Q8GYQ5 1-372)
chain: MSGESSSGSTEHCIKVVPTHGGRYVQYNVYGQLFEVSRKYVPPIRPIGRGACGIVCAAVNSVTGEKVAIKKIGNAFDNIIDAKRTLREIKLLRHMDHENVITIKDIVRPPQRDIFNDVYIVYELMDTDLQRILRSNQTLTSDQCRFLVYQLLRGLKYVHSANILHRDLRPSNVLLNSKNELKIGDFGLARTTSDTDFMTEYVVTRWYRAPELLLNCSEYTAAIDIWSVGCILGEIMTGQPLFPGKDYVHQLRLITELVGSPDNSSLGFLRSDNARRYVRQLPRYPKQQFAARFPKMPTTAIDLLERMLVFDPNRRISVDEALGHAYLSPHHDVAKEPVCSTPFSFDFEHPSCTEEHIKELIYKESVKFNPDH
How did the binding turn out when B1 was run?
Its binding is “binds”.
